In assay [1] the target is NFκB p65 (human (endogenous in HUVEC)), Q04206. Nature of the assay: co-IP; HUVEC nuclear extracts (1 mg; 2 mM EDTA, 50 mM Tris pH 7.5, 150 mM NaCl, 1% NP-40), with or without exosome treatment (25 μg/mL); immunoprecipitated with anti-p65 or mouse IgG overnight at 4 °C, and the reciprocal experiment; western blot. The following applies: remark: other sources report otherwise. Background: A western blot detects proteins with antibodies after separation by electrophoresis.

Amino acid sequences for entries named in this document (tags omitted). A change or cut given only in a name is not applied to a line headed by its entry. Residues count along the entry.
UniProt P12830, residues 155-709: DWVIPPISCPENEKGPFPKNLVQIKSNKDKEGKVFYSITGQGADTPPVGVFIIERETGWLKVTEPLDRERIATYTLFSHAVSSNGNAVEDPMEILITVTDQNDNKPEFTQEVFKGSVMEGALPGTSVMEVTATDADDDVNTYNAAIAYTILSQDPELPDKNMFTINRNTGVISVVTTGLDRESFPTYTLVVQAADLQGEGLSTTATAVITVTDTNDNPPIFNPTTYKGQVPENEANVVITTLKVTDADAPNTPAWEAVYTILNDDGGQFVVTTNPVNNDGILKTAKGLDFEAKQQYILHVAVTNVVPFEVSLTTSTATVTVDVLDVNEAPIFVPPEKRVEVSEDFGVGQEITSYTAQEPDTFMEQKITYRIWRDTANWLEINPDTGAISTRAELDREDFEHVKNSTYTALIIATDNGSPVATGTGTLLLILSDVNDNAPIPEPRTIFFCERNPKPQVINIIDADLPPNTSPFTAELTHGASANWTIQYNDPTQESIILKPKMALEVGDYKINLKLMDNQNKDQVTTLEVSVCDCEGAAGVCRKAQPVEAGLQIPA

In assay [2] the target is His-tagged Fc/sE-cad chimera (recombinant soluble E-cadherin fused to Fc) (UniProt P12830). Nature of the assay: pull-down; HUVEC lysate (1 mg; 50 mM NaH2PO4, 300 mM NaCl, 10 mM imidazole, 1% NP-40, pH 8.0) incubated with 10 μg/mL His-tagged sE-cad/Fc for 6 h at 4 °C, then Ni-NTA for 1.5 h; washed with 20 mM imidazole, eluted with 500 mM imidazole; western blot; only the target purified.

Here are results for 2 molecules from article PMC5995921.

These are yes or no findings as the source states them, for the method shown. In cells and extracts the contact can be indirect. Some results given as binding are weak or reduced against the parent protein; the word gives no strength.

B1: β-catenin, P35222 1-781 (protein)
chain: MATQADLMELDMAMEPDRKAAVSHWQQQSYLDSGIHSGATTTAPSLSGKGNPEEEDVDTSQVLYEWEQGFSQSFTQEQVADIDGQYAMTRAQRVRAAMFPETLDEGMQIPSTQFDAAHPTNVQRLAEPSQMLKHAVVNLINYQDDAELATRAIPELTKLLNDEDQVVVNKAAVMVHQLSKKEASRHAIMRSPQMVSAIVRTMQNTNDVETARCTAGTLHNLSHHREGLLAIFKSGGIPALVKMLGSPVDSVLFYAITTLHNLLLHQEGAKMAVRLAGGLQKMVALLNKTNVKFLAITTDCLQILAYGNQESKLIILASGGPQALVNIMRTYTYEKLLWTTSRVLKVLSVCSSNKPAIVEAGGMQALGLHLTDPSQRLVQNCLWTLRNLSDAATKQEGMEGLLGTLVQLLGSDDINVVTCAAGILSNLTCNNYKNKMMVCQVGGIEALVRTVLRAGDREDITEPAICALRHLTSRHQEAEMAQNAVRLHYGLPVVVKLLHPPSHWPLIKATVGLIRNLALCPANHAPLREQGAIPRLVQLLVRAHQDTQRRTSMGGTQQQFVEGVRMEEIVEGCTGALHILARDVHNRIVIRGLNTIPLFVQLLYSPIENIQRVAAGVLCELAQDKEAAEAIEAEGATAPLTELLHSRNEGVATYAAAVLFRMSEDKPQDYKKRLSVELTSSLFRTEPMAWNETADLGLDIGAQGEPLGYRQDDPSYRSFHSGGYGQDALGMDPMMEHEMGGHHPGADYPVDGLPDLGHAQDLMDGLPPGDSNQLAWFDTDL
With B1, the binding result in assay [1] was “no binding”.

B2: VE-cadherin (protein, UniProt P33151 48-784)
chain: DWIWNQMHIDEEKNTSLPHHVGKIKSSVSRKNAKYLLKGEYVGKVFRVDAETGDVFAIERLDRENISEYHLTAVIVDKDTGENLETPSSFTIKVHDVNDNWPVFTHRLFNASVPESSAVGTSVISVTAVDADDPTVGDHASVMYQILKGKEYFAIDNSGRIITITKSLDREKQARYEIVVEARDAQGLRGDSGTATVLVTLQDINDNFPFFTQTKYTFVVPEDTRVGTSVGSLFVEDPDEPQNRMTKYSILRGDYQDAFTIETNPAHNEGIIKPMKPLDYEYIQQYSFIVEATDPTIDLRYMSPPAGNRAQVIINITDVDEPPIFQQPFYHFQLKENQKKPLIGTVLAMDPDAARHSIGYSIRRTSDKGQFFRVTKKGDIYNEKELDREVYPWYNLTVEAKELDSTGTPTGKESIVQVHIEVLDENDNAPEFAKPYQPKVCENAVHGQLVLQISAIDKDITPRNVKFKFILNTENNFTLTDNHDNTANITVKYGQFDREHTKVHFLPVVISDNGMPSRTGTSTLTVAVCKCNEQGEFTFCEDMAAQVGVSIQAVVAILLCILTITVITLLIFLRRRLRKQARAHGKSVPEIHEQLVTYDEEGGGEMDTTSYDVSVLNSVRRGGAKPPRPALDARPSLYAQVQKPPRHAPGAHGGPGEMAAMIEVKKDEADHDGDGPPYDTLHIYGYEGSESIAESLSSLGTDSSDSDVDYDFLNDWGPRFKMLAELYGSDPREELLY
On to B2, for which the binding result in assay [2] is reported as “binds”.
